Data as given in PubChem BioAssay AID1259308 (NCATS, 2017)
The deposit covers about 59,000 reagents; shown is a random part of them. About 1,510 of them (2.6%) count as active. 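Calls use total luciferase alone and ignore viability, so some active siRNAs may act by altering cell number.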 Entries without a mark were called inactive. The numbers tell different reagents against one gene apart. Reagent sequences are not shown.

Assay: 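Knock-downs that increase output of a recombinant reporter protein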 (primary screen)
System: human HEK293 embryonic kidney cells stably expressing firefly luciferase (HEK-CMV-Luc2-Hygro)
Reagent: single siRNA against human genes, 0.8 pmol siRNA per well
Timing: 72 h
Measured: 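Reporter luminescence and viable-cell signal on separate replicate plates, given as percent of non-targeting control and median/MAD z-scores, plus per-cell luciferase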
Reading the numbers: total luciferase, z-score and total luciferase, % of control: higher = more reporter protein produced; luciferase per cell, z-score: higher = more reporter output per viable cell; viable cells, % of control: higher = more viable cells
Hit rule: 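An siRNA counts as active if its total luciferase robust z-score exceeds 3; genes with two or more such siRNAs out of three were retested with fresh siRNAs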
Calls: active = raised luciferase; inactive = no rise

| gene | siRNA no. | total luciferase, z-score | total luciferase, % of control | luciferase per cell, z-score | viable cells, % of control |
| --- | --- | --- | --- | --- | --- |
| LAMA3 (laminin subunit alpha 3) | 1 | -0.16 | 78.7 | 0.0111 | 87.7 |
| LAMA3 (laminin subunit alpha 3) | 2 | -1.38 | 54.5 | -1.24 | 84.4 |
| LAMA3 (laminin subunit alpha 3) | 3 | 2.8 | 138 | 2.03 | 90 |
| UBE3D (ubiquitin protein ligase E3D) | 1 | 0.377 | 89.4 | -0.246 | 107 |
| UBE3D (ubiquitin protein ligase E3D) | 2 | -0.608 | 69.8 | -0.461 | 88.1 |
| UBE3D (ubiquitin protein ligase E3D) | 3 | -1.02 | 61.6 | -0.933 | 88 |
| COL4A2 (collagen type IV alpha 2 chain) | 1 | 0.228 | 86.4 | 0.133 | 93.2 |
| COL4A2 (collagen type IV alpha 2 chain) | 2 | 2.08 | 123 | 1.76 | 86.6 |
| COL4A2 (collagen type IV alpha 2 chain) | 3 | -1.3 | 56.1 | -0.905 | 79.5 |
| MAGEB16 (MAGE family member B16) | 1 | 0.417 | 90.2 | 0.213 | 95.3 |
| MAGEB16 (MAGE family member B16) | 2 | 0.203 | 85.9 | 0.877 | 76.2 |
| MAGEB16 (MAGE family member B16) | 3 | -1.58 | 50.6 | -0.67 | 67.4 |
| RPP25 (ribonuclease P/MRP subunit p25) | 1 | 0.011 | 82.1 | 0.0998 | 89.4 |
| RPP25 (ribonuclease P/MRP subunit p25) | 2 | 1.94 | 121 | 1.18 | 98.8 |
| RPP25 (ribonuclease P/MRP subunit p25) | 3 | -0.586 | 70.2 | -0.744 | 95.5 |

Sorted by “viable cells, % of control” (highest first): some entries from above.
| gene | siRNA no. | total luciferase, z-score | total luciferase, % of control | luciferase per cell, z-score | viable cells, % of control |
| --- | --- | --- | --- | --- | --- |
| MAGEB16 (MAGE family member B16) | 1 | 0.417 | 90.2 | 0.213 | 95.3 |
| RPP25 (ribonuclease P/MRP subunit p25) | 1 | 0.011 | 82.1 | 0.0998 | 89.4 |
| COL4A2 (collagen type IV alpha 2 chain) | 2 | 2.08 | 123 | 1.76 | 86.6 |
| COL4A2 (collagen type IV alpha 2 chain) | 3 | -1.3 | 56.1 | -0.905 | 79.5 |
| MAGEB16 (MAGE family member B16) | 2 | 0.203 | 85.9 | 0.877 | 76.2 |
| MAGEB16 (MAGE family member B16) | 3 | -1.58 | 50.6 | -0.67 | 67.4 |

The results go on.
| gene | siRNA no. | total luciferase, z-score | total luciferase, % of control | luciferase per cell, z-score | viable cells, % of control |
| --- | --- | --- | --- | --- | --- |
| TRIB3 (tribbles pseudokinase 3) | 1 | -0.0994 | 79.9 | -0.203 | 94.2 |
| TRIB3 (tribbles pseudokinase 3) | 2 | -0.671 | 68.5 | 0.874 | 60.9 |
| TRIB3 (tribbles pseudokinase 3) | 3 | -0.805 | 65.9 | -0.29 | 79.5 |
| LOC729900 (golgin subfamily A member 6-like protein 7) | 1 | -0.65 | 69 | -0.532 | 88.6 |
| LOC729900 (golgin subfamily A member 6-like protein 7) | 2 | 1.73 | 116 | 2.87 | 61 |
| LOC729900 (golgin subfamily A member 6-like protein 7) | 3 | 0.707 | 96 | 1.32 | 75.7 |
| PPWD1 (peptidylprolyl isomerase domain and WD repeat containing 1) | 1 | 1.43 | 110 | 1.39 | 85.5 |
| PPWD1 (peptidylprolyl isomerase domain and WD repeat containing 1) | 2 | -0.355 | 74.8 | -0.358 | 91.9 |
| PPWD1 (peptidylprolyl isomerase domain and WD repeat containing 1) | 3 | 0.454 | 90.9 | 1.01 | 77.9 |
| BMP10 (bone morphogenetic protein 10) | 1 | 0.155 | 85 | -0.459 | 107 |
| BMP10 (bone morphogenetic protein 10) | 2 | 2.58 | 133 | 2.21 | 83.1 |
| BMP10 (bone morphogenetic protein 10) | 3 | -0.248 | 77 | 0.108 | 83.6 |
| IFI44L (interferon induced protein 44 like) | 1 | -0.0923 | 80 | -0.448 | 101 |
| IFI44L (interferon induced protein 44 like) | 2 | 0.145 | 84.8 | -0.138 | 98.2 |
| IFI44L (interferon induced protein 44 like) | 3 | 0.216 | 86.2 | -0.32 | 105 |
| SNRPC (small nuclear ribonucleoprotein polypeptide C) | 1 | 1.8 | 118 | 1.06 | 99.4 |
| SNRPC (small nuclear ribonucleoprotein polypeptide C) | 2 | -0.404 | 73.8 | 0.587 | 70.7 |
| SNRPC (small nuclear ribonucleoprotein polypeptide C) | 3 | 2.67 | 135 | 1.66 | 97.3 |
| LTV1 (LTV1 ribosome biogenesis factor) | 1 | -1.04 | 61.3 | -1.32 | 96.9 |
| LTV1 (LTV1 ribosome biogenesis factor) | 2 | -0.315 | 75.6 | -0.196 | 89 |
| LTV1 (LTV1 ribosome biogenesis factor) | 3 | -0.85 | 65 | -1.08 | 96.5 |
| ISYNA1 (inositol-3-phosphate synthase 1) | 1 | -0.409 | 73.7 | -0.143 | 85.6 |
| ISYNA1 (inositol-3-phosphate synthase 1) | 2 | 0.436 | 90.6 | 0.553 | 87.5 |
| ISYNA1 (inositol-3-phosphate synthase 1) | 3 | -0.754 | 66.9 | 0.107 | 72.7 |
